Consider two substances from paper PMC3079718.

Experiment [1] concerns the target T1, pGBK-AtGILP (AtGILP fused to the DNA binding domain of GAL4) (Arabidopsis thaliana) (UniProt Q94CD4).
T1 sequence: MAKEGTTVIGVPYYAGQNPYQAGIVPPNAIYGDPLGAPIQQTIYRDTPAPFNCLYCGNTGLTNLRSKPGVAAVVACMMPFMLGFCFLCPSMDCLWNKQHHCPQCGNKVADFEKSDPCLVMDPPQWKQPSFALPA
The experiment in a line: two-hybrid; bait in pGBKT7, prey in pGADT7-Rec, co-transformed into yeast strain AH109; quantitative beta-galactosidase activity of the colonies.

The target of experiment [2] is T2, MBP-AtGILPC (Arabidopsis thaliana) (UniProt Q94CD4).
T2 sequence: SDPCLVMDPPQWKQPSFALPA
The experiment in a line: pull-down; 3 ug purified MBP fusion protein + 500 uL GST fusion protein supernatant + 30 uL amylose resin, 4 C for 4 h; binding buffer 20 mM Tris-HCl pH 7.4, 150 mM NaCl, 1 mM EDTA, 1% Triton X-100; washed with 500 mM NaCl, 1% Triton X-100; Western blot with anti-GST; only the target purified. On the technique in general: Immunoblotting shows a protein as a band on a membrane.

The target of experiment [3] is T3, MBP-AtGILPN (Arabidopsis thaliana) (UniProt Q94CD4).
T3 sequence: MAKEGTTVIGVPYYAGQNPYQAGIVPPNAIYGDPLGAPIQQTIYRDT
The description is as above.

Experiment [4] concerns the target T4, MBP-AtGILP (Arabidopsis thaliana) (UniProt Q94CD4).
T4 sequence: T1 sequence
Described as above.

For experiment [5], the target named is T5, MBP-AtGILPL (Arabidopsis thaliana) (UniProt Q94CD4).
T5 sequence: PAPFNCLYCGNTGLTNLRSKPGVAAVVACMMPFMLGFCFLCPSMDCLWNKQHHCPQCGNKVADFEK
The experiment in a line: condition: 3 ug MBP fusion protein with 500 uL GST fusion protein supernatant; pull-down; 3 ug purified MBP fusion protein + 500 uL GST fusion protein supernatant + 30 uL amylose resin, 4 C for 4 h; binding buffer 20 mM Tris-HCl pH 7.4, 150 mM NaCl, 1 mM EDTA, 1% Triton X-100; washed with 500 mM NaCl, 1% Triton X-100; Western blot with anti-GST; only the target purified.

No constants are given. Whether binding was seen depends on the method and setting. For some assays here: A result given as binding can be weak or reduced; the word gives no strength. Where a sequence is shown, tags or fusion partners need not be part of it. For some assays here: In cells and extracts the contact can be indirect.

As to “pGAD-AtLSD1 (AtLSD1 in the prey vector pGADT7-Rec) (Arabidopsis)”, in experiment [1], the binding entry is on record as “binds”.
As for GST-AtLSD1 (Arabidopsis), the binding result in experiment [2] is on record as “binds”; in experiment [3], “binds”; in experiment [4] it was “binds”; in experiment [5], “no binding”.
